# At least one result comes from cells or an extract, where the contact may be indirect. Where a protein sequence is shown, tags need not be part of it.
# Target: T1, CD30 (TNFRSF8) (UniProt P28908)
# T1 sequence (looked up, limits assumed): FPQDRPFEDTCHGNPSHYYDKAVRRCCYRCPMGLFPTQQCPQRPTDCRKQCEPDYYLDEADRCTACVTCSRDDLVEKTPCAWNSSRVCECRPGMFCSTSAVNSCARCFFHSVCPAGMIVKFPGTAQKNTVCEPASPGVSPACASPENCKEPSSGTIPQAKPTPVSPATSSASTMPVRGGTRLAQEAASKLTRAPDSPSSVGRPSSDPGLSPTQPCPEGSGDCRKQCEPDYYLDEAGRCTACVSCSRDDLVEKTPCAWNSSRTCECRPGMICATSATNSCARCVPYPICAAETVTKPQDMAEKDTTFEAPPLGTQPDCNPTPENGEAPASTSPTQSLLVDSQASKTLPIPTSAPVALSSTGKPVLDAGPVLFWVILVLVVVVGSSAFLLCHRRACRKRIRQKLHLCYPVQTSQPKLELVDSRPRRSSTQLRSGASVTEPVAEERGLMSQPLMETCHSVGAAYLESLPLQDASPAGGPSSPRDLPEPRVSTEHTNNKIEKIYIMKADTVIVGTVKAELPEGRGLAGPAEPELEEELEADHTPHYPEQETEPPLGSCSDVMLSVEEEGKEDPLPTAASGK
# Assay: flow cytometry
# Settings: Cy5.5 probe stains CD30+ lymphoma cells, not CD30-negative control lymphoma cells (U937); microscopy staining down to 0.3 nM; CD30-negative cells serve as control; protein on the cell surface; protein details: native on Karpas 299 lymphoma cells (ATCC); label: Cy5.5, or Cy3 (5') with BHQ2 (3'), or 5' biotin
sequence,measurement,value
GAUUCGUAUGGGUGGGAUCGGGAAGGGCUACGAACACCG [CD30 RNA aptamer probe],binding result,binds

# Reference: US20150276750
